How the values were obtained:
[1] = system: breast cancer cell line MCF7; experiment: MTT cytotoxicity assay, MCF7; type: cell-based; conditions: Homo sapiens, MCF7, 72 h, read-out: Cytotoxicity IC50 MCF7
[2] = system: p-PI3K; experiment: Phosphorylated PI3K ELISA in MCF7 cells; type: cell-based, human; conditions: 4g at its IC50 0.56 μM, compared to untreated MCF7 cells

For `CN[C@@H]1C[C@H]2O[C@@](C)([C@@H]1OC)n1c3ccccc3c3c4c(c5c6ccccc6n2c5c31)C(=O)NC4` [Staurosporine, reference compound], the IC50 [1] was 8.04 ± 0.48 µM and the “inhibition of PI3K phosphorylation” value [2] was 34.6%.
